These are yes or no findings as the source states them, for the method shown. Binding seen in cells or lysates may run through a third protein. Some binding calls cover weakened binding; strength is not graded here. Where a sequence is shown, tags or fusion partners need not be part of it. Values belong to the binder of their own block, whether it stands above or below them.
Biological target: Apoptosis Signal-regulating Kinase 1 (ASK1) (UniProt Q99683)
Test: co-IP; lysates of cells transfected with ASK1 and/or myc-GSTM4 (or GSTM4 deletion mutants); immunoprecipitation with an anti-ASK1 antibody, co-precipitated GSTM4 detected with an anti-myc antibody

By UniProt entry, the sequences of proteins in these tests, tags left out.
UniProt Q99683: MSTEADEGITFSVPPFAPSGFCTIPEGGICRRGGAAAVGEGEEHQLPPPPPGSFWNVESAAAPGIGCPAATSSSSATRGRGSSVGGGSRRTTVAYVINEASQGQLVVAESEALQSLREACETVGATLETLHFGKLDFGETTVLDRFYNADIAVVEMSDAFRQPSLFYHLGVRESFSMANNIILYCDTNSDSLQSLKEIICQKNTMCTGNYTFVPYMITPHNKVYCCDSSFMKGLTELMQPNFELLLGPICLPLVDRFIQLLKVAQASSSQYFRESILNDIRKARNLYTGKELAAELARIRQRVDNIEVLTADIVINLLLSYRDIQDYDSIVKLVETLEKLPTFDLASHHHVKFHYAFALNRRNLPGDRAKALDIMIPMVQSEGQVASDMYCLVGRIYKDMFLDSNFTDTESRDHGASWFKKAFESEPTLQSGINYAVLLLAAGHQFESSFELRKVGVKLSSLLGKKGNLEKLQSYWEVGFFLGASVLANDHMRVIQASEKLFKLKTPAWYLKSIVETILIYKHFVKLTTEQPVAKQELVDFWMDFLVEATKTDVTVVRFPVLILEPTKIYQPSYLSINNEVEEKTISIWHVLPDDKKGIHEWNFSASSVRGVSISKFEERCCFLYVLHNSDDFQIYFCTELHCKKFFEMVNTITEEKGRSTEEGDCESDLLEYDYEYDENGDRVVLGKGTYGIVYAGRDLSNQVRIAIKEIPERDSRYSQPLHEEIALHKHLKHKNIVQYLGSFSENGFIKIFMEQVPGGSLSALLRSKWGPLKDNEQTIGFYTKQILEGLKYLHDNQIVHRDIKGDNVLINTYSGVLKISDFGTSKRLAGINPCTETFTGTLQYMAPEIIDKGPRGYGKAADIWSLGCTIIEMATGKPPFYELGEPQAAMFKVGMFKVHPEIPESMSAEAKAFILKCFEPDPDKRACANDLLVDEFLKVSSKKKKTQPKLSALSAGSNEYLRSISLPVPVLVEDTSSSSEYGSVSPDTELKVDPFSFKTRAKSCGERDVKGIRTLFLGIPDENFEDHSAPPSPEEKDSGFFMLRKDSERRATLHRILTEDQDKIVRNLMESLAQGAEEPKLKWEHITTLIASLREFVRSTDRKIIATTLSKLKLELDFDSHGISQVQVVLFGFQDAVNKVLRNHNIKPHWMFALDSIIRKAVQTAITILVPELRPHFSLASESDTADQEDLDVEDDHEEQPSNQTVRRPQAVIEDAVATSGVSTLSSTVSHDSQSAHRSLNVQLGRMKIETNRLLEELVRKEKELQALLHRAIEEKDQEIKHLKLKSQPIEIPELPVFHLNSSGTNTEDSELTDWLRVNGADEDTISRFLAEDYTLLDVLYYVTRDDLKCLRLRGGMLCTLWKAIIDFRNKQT

binding: binds
B1: myc-GSTM4 (glutathione S-transferase M4, full length construct) (enzyme, UniProt Q03013 1-218)
chain: MSMTLGYWDIRGLAHAIRLLLEYTDSSYEEKKYTMGDAPDYDRSQWLNEKFKLGLDFPNLPYLIDGAHKITQSNAILCYIARKHNLCGETEEEKIRVDILENQAMDVSNQLARVCYSPDFEKLKPEYLEELPTMMQHFSQFLGKRPWFVGDKITFVDFLAYDVLDLHRIFEPNCLDAFPNLKDFISRFEGLEKISAYMKSSRFLPKPLYTRVAVWGNK

binding: binds
B2: GSTM4-CT (GSTM4 deletion mutant, 223-656 bp) (domain or fragment, UniProt Q03013 75-218)
chain: AILCYIARKHNLCGETEEEKIRVDILENQAMDVSNQLARVCYSPDFEKLKPEYLEELPTMMQHFSQFLGKRPWFVGDKITFVDFLAYDVLDLHRIFEPNCLDAFPNLKDFISRFEGLEKISAYMKSSRFLPKPLYTRVAVWGNK

From PMC4123608
